Data on 37 compounds can be found in the supplement of paper PMC12873370.

SMILES strings stand for the structures. Where “and” joins values, the source holds several entries; their conditions need not be identical. Equal values may be shown once. Some of the results follow. Single values are uncertain, as repeats are few or missing.

In one test the test system is MEPP (mouse ovarian epithelium Trp53/Pten KO). Nature of the test: cell viability relative to untreated (fraction); higher = less growth inhibition. As to conditions: 5 µM; 3 days.
The compound `CCCC(=O)N[C@H]1CCOC1=O` had a cell viability of 1.13.

The compound `COc1ccc2c(c1OC)CN1CCc3cc4c(cc3C1C2)OCO4` (centres undefined) gave a cell viability of 0.951.

`CC(C)[C@]12O[C@H]1[C@@H]1O[C@@]13[C@@]1(C)CCC4=C(COC4=O)[C@@H]1C[C@@H]1O[C@@]13C2=O` returned a cell viability of 0.576.

In turn, `C[C@]12CCC(=O)C=C1CC[C@@H]1[C@@H]2C(=O)C[C@]2(C)C(=O)CC[C@@H]12` registered a cell viability of 0.981.

In turn, `O=C1C=CC(=O)c2ccccc21` came in with a cell viability of 1.02.

`CN(C)CCc1ccc(O)cc1` came in with a cell viability of 1.26.

As for `COc1cc(C(=O)O)cc(OC)c1OC`, the cell viability came out at 0.87.

`COc1cc2c(c(OC)c1OC)-c1ccc(OC)c(=O)cc1[C@@H](NC(C)=O)CC2` yielded a cell viability of 0.673.

As for `Oc1ccccc1-c1ccccc1`, the cell viability worked out at 0.93.

`C=C(C)[C@@H]1[C@H]2OC(=O)[C@@H]1[C@]1(O)C[C@H]3OC34C(=O)O[C@H]2[C@@]41C.CC(C)(O)[C@@H]1[C@H]2OC(=O)[C@@H]1[C@]1(O)C[C@H]3OC34C(=O)O[C@H]2[C@@]41C` (some centres undefined) gave a cell viability of 1.08.

`O=C1C=CC(=O)c2c(O)cccc21` came in with a cell viability of 1.09.

Turning to `COc1ccc2c(c1)[nH]c1c(C)nccc12`, the cell viability is 1.09 and 1.03.

For `Nc1nc(N)nc(N)n1`, the cell viability came out at 0.99.

Compound `O=C1C=CC[C@@H]2[C@H]3CCC[N+]4([O-])CCC[C@@H](CN12)[C@@H]34` (some centres undefined) gave a cell viability of 1.71.

Compound `CC(C)C[C@H]1C(=O)N2CCC[C@H]2[C@]2(O)O[C@](NC(=O)[C@@H]3C=C4c5cccc6[nH]c(Br)c(c56)C[C@H]4N(C)C3)(C(C)C)C(=O)N12` showed a cell viability of 0.783.

`CC(C)c1cc2c(c(O)c1O)[C@@]1(C(=O)O)CCCC(C)(C)[C@@H]1CC2` returned a cell viability of 1.15.

In the case of `CO[C@@H]1C[C@@H](C[C@H]2CC[C@H](C)[C@H]([C@@H](C)C(=O)O)O2)O[C@]2(O[C@](C)([C@H]3CC[C@@](C)([C@@H]4O[C@@H]([C@H]5O[C@@](O)(CO)[C@H](C)C[C@@H]5C)C[C@@H]4C)O3)C[C@H]2C)[C@@H]1C`, the cell viability amounted to 0.398.

For `NCC1(CC(=O)O)CCCCC1`, the cell viability is 1.13.

As for `O=C1CCC[C@@H]2[C@H]3CCCN4CCC[C@@H](CN12)[C@@H]34`, the cell viability is 1.15.

In turn, `CC[C@@]1(O)C(=O)OCc2c1cc1n(c2=O)Cc2cc3ccccc3nc2-1` registered a cell viability of 0.64.

Compound `CC(C)=CCC[C@@](C)(O)[C@H]1CC[C@]2(C)[C@@H]1[C@H](O)C[C@@H]1[C@@]3(C)CC[C@H](O[C@@H]4O[C@H](CO)[C@@H](O)[C@H](O)[C@H]4O)C(C)(C)[C@@H]3CC[C@]12C` had a cell viability of 1.03.

In turn, `C[C@@H]1[C@H](O)[C@@H](C)/C=C/C=C/CC/C=C/C=C/C=C/C=C/[C@H](O[C@H]2O[C@@H](C)[C@H](O)[C@@H](N)[C@H]2O)C[C@@H]2O[C@](O)(C[C@@H](O)[C@H](O)CC[C@@H](O)C[C@@H](O)C[C@@H](O)CC(=O)O[C@H]1C)C[C@H](O)[C@H]2C(=O)O` gave a cell viability of 0.906.

`CN1C2CCC1CC(O)C2` (centres undefined) showed a cell viability of 0.933.

`CC1=C(O)C(=O)C=C2C1=CC=C1[C@@]2(C)CC[C@@]2(C)[C@@H]3C[C@](C)(C(=O)O)CC[C@]3(C)CC[C@]12C` returned a cell viability of 0.757.

Consider `CCCCCCC(=O)O[C@H]1CC[C@H]2[C@@H]3CCC4=CC(=O)CC[C@]4(C)[C@H]3CC[C@]12C`, for which the cell viability is 1.04.

With `CC(C)[C@]12O[C@H]1[C@@H]1O[C@]13[C@]1(O[C@H]1C[C@H]1C4=C(CC[C@@]13C)C(=O)OC4)[C@@H]2O`, the cell viability is 0.539.

As to `CCNc1nc(Cl)nc(NC(C)C)n1`, the cell viability stood at 1.15.

Consider `CC(=O)O[C@H]1CC[C@@]2(C)C(=CC[C@@H]3[C@@H]2CC[C@]2(C)C(=O)CC[C@@H]32)C1`, for which the cell viability is 1.17.

Consider `O=C(O)CNC(=O)c1cccnc1`, for which the cell viability was 0.915.

In the case of `C[C@]12CCC(=O)C[C@@H]1CC[C@@H]1[C@@H]2CC[C@]2(C)[C@@H](O)CC[C@@H]12`, the cell viability is 0.843.

Consider `CC1=C2[C@H]3OC(=O)[C@@H](C)[C@@H]3CC[C@@]2(C)C=CC1=O`, for which the cell viability was 1.04.

The compound `CC(=O)[C@H]1CC[C@H]2[C@@H]3CC[C@H]4C[C@H](O)CC[C@]4(C)[C@H]3CC[C@]12C` returned a cell viability of 0.81.

On to `CCCC[N+]1(C)[C@@H]2C[C@@H](OC(=O)[C@H](CO)c3ccccc3)C[C@H]1[C@@H]1O[C@@H]12` (some centres undefined), for which the cell viability was 1.1.

Consider `CC1=C2C[C@H]3[C@@H](CC=C4C[C@@H](O)CC[C@@]43C)[C@@H]2CC[C@]12O[C@@H]1C[C@H](C)CN[C@H]1[C@H]2C`, for which the cell viability was determined as 0.991.

As for `CC1=C[C@]23C(=O)[C@@H](C=C(CO)[C@@H](O)[C@]2(O)[C@H]1O)[C@H]1[C@@H](C[C@H]3C)C1(C)C`, the cell viability amounted to 0.947.

Compound `O=Cc1ccco1` registered a cell viability of 1.06.

Take `COc1cc([C@@H]2c3cc4c(cc3[C@@H](O)[C@H]3COC(=O)[C@H]23)OCO4)cc(OC)c1O`: the cell viability was 0.674.

The next test relates to PREPP (mouse prostate epithelium Trp53/Pten KO). Described as above. As to conditions: 5 µM; 3 days.
For `CCCC(=O)N[C@H]1CCOC1=O`, the cell viability worked out at 0.957.

Compound `COc1ccc2c(c1OC)CN1CCc3cc4c(cc3C1C2)OCO4` (centres undefined) came in with a cell viability of 1.02.

As for `CC(C)[C@]12O[C@H]1[C@@H]1O[C@@]13[C@@]1(C)CCC4=C(COC4=O)[C@@H]1C[C@@H]1O[C@@]13C2=O`, the cell viability was found to be 0.57.

`C[C@]12CCC(=O)C=C1CC[C@@H]1[C@@H]2C(=O)C[C@]2(C)C(=O)CC[C@@H]12` returned a cell viability of 0.901.

`O=C1C=CC(=O)c2ccccc21` had a cell viability of 0.852.

`CN(C)CCc1ccc(O)cc1` displayed a cell viability of 0.953.

`COc1cc(C(=O)O)cc(OC)c1OC` yielded a cell viability of 1.02.

Compound `COc1cc2c(c(OC)c1OC)-c1ccc(OC)c(=O)cc1[C@@H](NC(C)=O)CC2` yielded a cell viability of 0.707.

In turn, `Oc1ccccc1-c1ccccc1` showed a cell viability of 0.971.

As for `C=C(C)[C@@H]1[C@H]2OC(=O)[C@@H]1[C@]1(O)C[C@H]3OC34C(=O)O[C@H]2[C@@]41C.CC(C)(O)[C@@H]1[C@H]2OC(=O)[C@@H]1[C@]1(O)C[C@H]3OC34C(=O)O[C@H]2[C@@]41C` (some centres undefined), the cell viability stood at 1.05.

Turning to `O=C1C=CC(=O)c2c(O)cccc21`, the cell viability amounted to 0.744.

`COc1ccc2c(c1)[nH]c1c(C)nccc12`: the cell viability was 0.855 and 0.918.

The compound `Nc1nc(N)nc(N)n1` gave a cell viability of 0.951.

Consider `O=C1C=CC[C@@H]2[C@H]3CCC[N+]4([O-])CCC[C@@H](CN12)[C@@H]34` (some centres undefined), for which the cell viability was determined as 0.886.

In turn, `CC(C)C[C@H]1C(=O)N2CCC[C@H]2[C@]2(O)O[C@](NC(=O)[C@@H]3C=C4c5cccc6[nH]c(Br)c(c56)C[C@H]4N(C)C3)(C(C)C)C(=O)N12` displayed a cell viability of 0.694.

Take `CC(C)c1cc2c(c(O)c1O)[C@@]1(C(=O)O)CCCC(C)(C)[C@@H]1CC2`: the cell viability was 1.27.

The compound `CO[C@@H]1C[C@@H](C[C@H]2CC[C@H](C)[C@H]([C@@H](C)C(=O)O)O2)O[C@]2(O[C@](C)([C@H]3CC[C@@](C)([C@@H]4O[C@@H]([C@H]5O[C@@](O)(CO)[C@H](C)C[C@@H]5C)C[C@@H]4C)O3)C[C@H]2C)[C@@H]1C` displayed a cell viability of 0.243.

As to `NCC1(CC(=O)O)CCCCC1`, the cell viability was found to be 0.902.

In the case of `O=C1CCC[C@@H]2[C@H]3CCCN4CCC[C@@H](CN12)[C@@H]34`, the cell viability came to 0.876.

Take `CC[C@@]1(O)C(=O)OCc2c1cc1n(c2=O)Cc2cc3ccccc3nc2-1`: the cell viability was 0.495.

`CC(C)=CCC[C@@](C)(O)[C@H]1CC[C@]2(C)[C@@H]1[C@H](O)C[C@@H]1[C@@]3(C)CC[C@H](O[C@@H]4O[C@H](CO)[C@@H](O)[C@H](O)[C@H]4O)C(C)(C)[C@@H]3CC[C@]12C` registered a cell viability of 1.

Consider `C[C@@H]1[C@H](O)[C@@H](C)/C=C/C=C/CC/C=C/C=C/C=C/C=C/[C@H](O[C@H]2O[C@@H](C)[C@H](O)[C@@H](N)[C@H]2O)C[C@@H]2O[C@](O)(C[C@@H](O)[C@H](O)CC[C@@H](O)C[C@@H](O)C[C@@H](O)CC(=O)O[C@H]1C)C[C@H](O)[C@H]2C(=O)O`, for which the cell viability came out at 1.04.

Consider `CN1C2CCC1CC(O)C2` (centres undefined), for which the cell viability was 0.724.

Compound `CC1=C(O)C(=O)C=C2C1=CC=C1[C@@]2(C)CC[C@@]2(C)[C@@H]3C[C@](C)(C(=O)O)CC[C@]3(C)CC[C@]12C` had a cell viability of 0.582.

For the compound `CCCCCCC(=O)O[C@H]1CC[C@H]2[C@@H]3CCC4=CC(=O)CC[C@]4(C)[C@H]3CC[C@]12C`, the cell viability turned out to be 1.

Take `CC(C)[C@]12O[C@H]1[C@@H]1O[C@]13[C@]1(O[C@H]1C[C@H]1C4=C(CC[C@@]13C)C(=O)OC4)[C@@H]2O`: the cell viability worked out at 0.547.

On to `CCNc1nc(Cl)nc(NC(C)C)n1`, for which the cell viability was 0.944.

As to `CC(=O)O[C@H]1CC[C@@]2(C)C(=CC[C@@H]3[C@@H]2CC[C@]2(C)C(=O)CC[C@@H]32)C1`, the cell viability is 1.09.

`O=C(O)CNC(=O)c1cccnc1` returned a cell viability of 1.14.

Compound `C[C@]12CCC(=O)C[C@@H]1CC[C@@H]1[C@@H]2CC[C@]2(C)[C@@H](O)CC[C@@H]12` yielded a cell viability of 0.91.

Compound `CC1=C2[C@H]3OC(=O)[C@@H](C)[C@@H]3CC[C@@]2(C)C=CC1=O` registered a cell viability of 1.15.

On to `CC(=O)[C@H]1CC[C@H]2[C@@H]3CC[C@H]4C[C@H](O)CC[C@]4(C)[C@H]3CC[C@]12C`, for which the cell viability was 0.83.

`CCCC[N+]1(C)[C@@H]2C[C@@H](OC(=O)[C@H](CO)c3ccccc3)C[C@H]1[C@@H]1O[C@@H]12` (some centres undefined): the cell viability came to 0.932.

Compound `CC1=C2C[C@H]3[C@@H](CC=C4C[C@@H](O)CC[C@@]43C)[C@@H]2CC[C@]12O[C@@H]1C[C@H](C)CN[C@H]1[C@H]2C` gave a cell viability of 0.963.

`CC1=C[C@]23C(=O)[C@@H](C=C(CO)[C@@H](O)[C@]2(O)[C@H]1O)[C@H]1[C@@H](C[C@H]3C)C1(C)C` registered a cell viability of 0.912.

For `O=Cc1ccco1`, the cell viability stood at 0.966.

The compound `COc1cc([C@@H]2c3cc4c(cc3[C@@H](O)[C@H]3COC(=O)[C@H]23)OCO4)cc(OC)c1O` gave a cell viability of 0.713.
